According to patent US6476196:
Results are given in words; binding and its absence hold for the method and conditions named. Binding calls can cover weak binding; strength is not graded here.

Tests used:
[1] = biological target: Rat ER-β ligand-binding domain (LBD) (rat); assay: X-ray co-crystal structure; LBD with 17-epiestriol
[2] = biological target: Rat ER-β ligand-binding domain (LBD) (rat); assay: X-ray co-crystal structure, about 1.8 Å; LBD with 17-epiestriol, LBD and peptide mixed 1:5
[3] = biological target: Rat ER-β ligand-binding domain (LBD) (rat); assay: X-ray co-crystal structure; LBD with estradiol
[4] = biological target: Rat ER-β ligand-binding domain (LBD) (rat); assay: X-ray co-crystal structure, about 2.1 Å; LBD with estradiol, LBD and peptide mixed 1:5

Measured: binding

HPPAIQSLINLLADNRY [LXXLL coactivator peptide …, residues 338-354 of the coactivator independent of AF2 function (CIA)]
binds: all assays above
